Source: PubChem BioAssay AID1259254 (NCATS, 2017)
The whole screen tested about 59,000 reagents; this is a part drawn at random. About 1,550 of all reagents (2.6%) count as active. 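G2 share is only a proxy for re-replication; each gene was hit by three separate siRNAs, and active genes were retested.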 Reagents against one gene are numbered here. Further read-outs or replicates are left out here. Not stated in the record: the amount of reagent.

Purpose: 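Genome-wide screen for genes that prevent DNA re-replication in cancer cells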 (primary screen)
Cell system: human HCT116 colorectal cancer cells
Reagents: single siRNA against human genes
Timing: 3 days
Measured: 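Nuclei stained with Hoechst and imaged; cell-cycle phase assigned by DNA content; G2 share scaled per plate, non-targeting siRNA 0%, GMNN siRNA 100%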
Scale: G2 robust z-score: higher = more G2 cells, more excess DNA replication
Active means: 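Active siRNAs have a G2 robust z of 5 or more median absolute deviations over the median, which in these data means about 38% or higher of GMNN control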

With knock-down of ANAPC10 (GeneID 10393) #1, the record shows G2 robust z-score 3.23; inactive.
Depletion of ANAPC10 (GeneID 10393) #2 gave: G2 robust z-score -0.303; inactive.
Against ANAPC10 (GeneID 10393) #3, the values are G2 robust z-score -0.494; inactive.
Silencing of PCDHGC5 (GeneID 56097) #1 gave: G2 robust z-score -0.624; inactive.
With knock-down of PCDHGC5 (GeneID 56097) #2 the results were G2 robust z-score -0.83; inactive.
Silencing of PCDHGC5 (GeneID 56097) #3 resulted in: G2 robust z-score 1.19; inactive.
EXOSC1 (GeneID 51013) #1 showed G2 robust z-score -0.22; inactive.
EXOSC1 (GeneID 51013) #2 showed G2 robust z-score -0.468; inactive.
Against EXOSC1 (GeneID 51013) #3, the values are G2 robust z-score 0.918; inactive.
NDUFC2 (GeneID 4718) #1 gave G2 robust z-score -0.699; inactive.
Knock-down of NDUFC2 (GeneID 4718) #2 gave: G2 robust z-score 1.24; inactive.
For NDUFC2 (GeneID 4718) #3, the values are G2 robust z-score 1.05; inactive.
For HACE1 (GeneID 57531) #1 the deposit lists G2 robust z-score -0.234; inactive.
Silencing of HACE1 (GeneID 57531) #2 came out at: G2 robust z-score -0.666; inactive.
Silencing of HACE1 (GeneID 57531) #3 resulted in: G2 robust z-score 1.64; inactive.
NFATC2IP (GeneID 84901) #1 gave G2 robust z-score 2.27; inactive.
With knock-down of NFATC2IP (GeneID 84901) #2, the screen gave G2 robust z-score 1.68; inactive.
NFATC2IP (GeneID 84901) #3 gave G2 robust z-score 0.0654; inactive.
Against FEM1A (GeneID 55527) #1, the entry reads G2 robust z-score -0.0718; inactive.
Against FEM1A (GeneID 55527) #2 the deposit lists G2 robust z-score 0.898; inactive.
After knock-down of FEM1A (GeneID 55527) #3 the results were G2 robust z-score -0.87; inactive.
Depletion of MPHOSPH10 (GeneID 10199) #1 resulted in: G2 robust z-score 2.8; inactive.
Knock-down of MPHOSPH10 (GeneID 10199) #2 resulted in: G2 robust z-score 0.719; inactive.
For MPHOSPH10 (GeneID 10199) #3 the deposit lists G2 robust z-score 1.51; inactive.

3 entries already listed, ordered by “G2 robust z-score”, low to high.
MPHOSPH10 (GeneID 10199) #2 | G2 robust z-score: 0.719; Outcome: inactive
MPHOSPH10 (GeneID 10199) #3 | G2 robust z-score: 1.51; Outcome: inactive
MPHOSPH10 (GeneID 10199) #1 | G2 robust z-score: 2.8; Outcome: inactive
